These are yes or no findings as the source states them, for the method shown. Binding calls can cover weak binding; strength is not graded here. Sequences can lack the tags named with a protein.
Assays:
[1] = target: IQD2_(C-half) fused to the Gal4 DNA-binding domain (Arabidopsis thaliana); test: two-hybrid
[2] = target: IQD2_(ΔNterm) fused to the Gal4 DNA-binding domain (Arabidopsis thaliana); test: two-hybrid

B1: KLCR1 fused to the Gal4 activation domain (protein, UniProt O81629 1-609)
chain: MPAMPGLVSVKTPSDTPPLRVAVPDTQPLSNPPRTPMKKTPSSTPSRSKPSPNRSTGKKDSPTVSSSTAAVIDVDDPSLDNPDLGPFLLKLARDAIASGEGPNKALDYAIRATKSFERCCAAVAPPIPGGSDGGPVLDLAMSLHVLAAIYCSLGRFDEAVPPLERAIQVPDPTRGPDHSLAAFSGHMQLGDTLSMLGQIDRSIACYEEGLKIQIQTLGDTDPRVGETCRYLAEAYVQAMQFNKAEELCKKTLEIHRAHSEPASLEEAADRRLMAIICEAKGDYENALEHLVLASMAMIASGQESEVASIDVSIGNIYMSLCRFDEAVFSYQKALTVFKASKGETHPTVASVFVRLAELYHRTGKLRESKSYCENALRIYNKPVPGTTVEEIAGGLTEISAIYESVDEPEEALKLLQKSMKLLEDKPGQQSAIAGLEARMGVMYYTVGRYEDARNAFESAVTKLRAAGEKSAFFGVVLNQMGLACVQLFKIDEAGELFEEARGILEQERGPCDQDTLGVYSNLAATYDAMGRIEDAIEILEQVLKLREEKLGTANPDFEDEKKRLAELLKEAGRSRNYKAKSLQNLIDPNARPPKKESSAKKWPSLGFKF
B1 was tested, and the binding [1] was “binds” and the binding [2] was “binds”.

— publication doi:10.1101/2024.10.01.615909 (bioRxiv, 2024)
